Paper PMC10433963
No constants are given. Whether binding was seen depends on the method and setting. Binding seen in cells or lysates may run through a third protein. These calls come from enrichment with a bait or labelling near it, and not all partners need be listed. For some assays here: A no says only that the protein was not detected with the bait.

Protein sequences, listed by entry. Tags and fused reporters are not part of them. Residues count along the entry.
ClpC1^NTD (ClpC1 N-terminal domain alone, aa 1 to 147, C-terminal 3xFLAG) (A0R574, residues 1-147): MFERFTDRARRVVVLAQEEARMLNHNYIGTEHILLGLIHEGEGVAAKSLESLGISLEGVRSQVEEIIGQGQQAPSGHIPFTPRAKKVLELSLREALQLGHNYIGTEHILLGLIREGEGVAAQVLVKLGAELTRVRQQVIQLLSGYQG
ClpC1^CORE (ClpC1 lacking the NTD, aa 158 to 848, C-terminal 3xFLAG) (A0R574, residues 158-848): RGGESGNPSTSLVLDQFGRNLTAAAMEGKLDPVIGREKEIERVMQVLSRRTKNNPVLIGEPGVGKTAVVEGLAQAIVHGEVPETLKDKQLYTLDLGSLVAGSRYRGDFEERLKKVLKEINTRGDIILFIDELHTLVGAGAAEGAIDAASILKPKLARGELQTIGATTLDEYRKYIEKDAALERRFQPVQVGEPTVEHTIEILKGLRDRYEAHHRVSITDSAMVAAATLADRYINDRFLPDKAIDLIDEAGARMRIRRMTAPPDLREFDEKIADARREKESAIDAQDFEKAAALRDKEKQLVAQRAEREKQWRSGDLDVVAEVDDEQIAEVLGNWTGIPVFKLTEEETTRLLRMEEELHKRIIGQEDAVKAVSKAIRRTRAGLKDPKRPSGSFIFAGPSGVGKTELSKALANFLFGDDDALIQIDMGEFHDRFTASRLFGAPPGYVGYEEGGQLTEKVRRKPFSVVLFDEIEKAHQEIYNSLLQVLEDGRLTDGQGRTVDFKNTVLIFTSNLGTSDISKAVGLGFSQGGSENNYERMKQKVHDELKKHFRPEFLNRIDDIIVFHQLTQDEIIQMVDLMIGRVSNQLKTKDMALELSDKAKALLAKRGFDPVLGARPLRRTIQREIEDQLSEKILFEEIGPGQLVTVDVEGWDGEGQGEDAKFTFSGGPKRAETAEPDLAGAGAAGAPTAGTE

B1: 2-Hydroxy-6-oxo-6-phenylhexa-2,4-dienoate hydrolase (EC 3.7.1.−) (protein, UniProt A0QWD3 1-286)
chain: MQAIDYQDSLREVTTDAGVLRFHEAGDGPPLLLLHGSGPGVTGWRNYRGNLGFFAQHFRCLVLEFPGFGVSDDFGGHPMLDAQRAAVVFADALGLDRVDIIGNSMGGGVGINFAINHPDRVRHLVTIGGIGTNIFSPGPSEGIRLLQEFTEDPTRARLVDWLNSMVYDPALVTDELIEERWALATDPETLESARRMYGKAAFAAMMEMMRNADFPLPWSIMHKVKAPTLLTWGRDDRVSPLDMALVPMRTIPNAELHVFPNCGHWVMIEAKSAFERTVLSFLTQDN
B2: Chaperone protein DnaJ1 (protein, UniProt A0QQD0 1-390)
chain: MAQREWVEKDFYKELGVSSDASADEIKKAYRKLAAELHPDRNSDPGAAERFKAVSEANSVLSDPAKRKEYDETRRLFAGGFGRRFNQGGGGFGGGFGSDGVEFNLGDLFDAAGQTGGANIGDLFGGLFGRGPQQRPSRPRRGNDLETETELSFLEATKGVAMPLRLTSPAPCTNCHGSGARPGTSPKVCPSCNGSGVISRNQGAFGFSEPCTECRGSGSIIEHPCQECRGTGVTTRTRTINVRIPPGVEDGQRIRLAGQGEAGLRGAPSGDLYVTVHVRPDKVFGRDGDDLTVTVPVSFHELALGTTLSVPTLDGKVGVRVPKGTSDGRILRVRGRGVPKRSGGHGDLLVTVKVAVPPNLEGEAAEALEAYAKAERASGFDPRAGWAGNV
B3: ATP synthase subunit b-delta (protein, UniProt A0R203 1-445)
chain: MSIFIGQLIGFAVIAFIIVKWVVPPVRTLMRNQQEAVRAALAESAEAAKKLADADAMHAKALADAKAESEKVTEEAKQDSERIAAQLSEQAGSEAERIKAQGAQQIQLMRQQLIRQLRTGLGAEAVNKAAEIVRAHVADPQAQSATVDRFLSELEQMAPSSVVIDTAATSRLRAASRQSLAALVEKFDSVAGGLDADGLTNLADELASVAKLLLSETALNKHLAEPTDDSAPKVRLLERLLSDKVSATTLDLLRTAVSNRWSTESNLIDAVEHTARLALLKRAEIAGEVDEVEEQLFRFGRVLDAEPRLSALLSDYTTPAEGRVALLDKALTGRPGVNQTAAALLSQTVGLLRGERADEAVIDLAELAVSRRGEVVAHVSAAAELSDAQRTRLTEVLSRIYGRPVSVQLHVDPELLGGLSITVGDEVIDGSIASRLAAAQTGLPD
B4: Magnesium chelatase (protein, UniProt A0R3L1 1-461)
chain: MVSQPKDLPRTVGELRASGHRERGVKAEIRENLLAALAERRDVWPGILGFEDTVIPQLERALIAGHDVVLLGERGQGKTRLLRALTGLLDEWTPVIAGSELGEHPYSPITPESIRRAADSGDDLPVEWRHRSERYTEKLATPDTSVADLVGDIDPIKVAEGRSLGDPETIAYGLIPRAHRGIVAVNELPDLAERIQVAMLNVMEERDIQVRGYTLRLPLDVLVVASANPEDYTNRGRIITPLKDRFGAEIRTHYPLELEAEVGVIRQEAELAAEVPEYLLAVLARFARNLRESNSIDQRSGVSARFAIAAAETVAASARHRAAILGEDDPVARVVDLGTVIDVLRGKLEFETGEEGREQAVLEHLLRRATADTAQRLLGGIDVGPLVAAIEEGSPVTTGERVSAKDVVAALPDLPAIDAIAHRLNAVSVGQRAAAIELALEALYLAKRIDKVSGEGETVYG
B5: Aspartate aminotransferase (protein, UniProt A0QQA8 1-424)
chain: MERVTTHQLPWQSTGEHRKPRTFTQSTKLQDVLYEIRGPVHEHASRLEAEGHRILKLNIGNPAPFGFEAPDVIMRDIIQALPTAQGYSDSKGILSARRAVFTRYELVEGFPKFDVDDVYLGNGVSELITMTLQALLDNGDQVLIPAPDYPLWTASTSLAGGTPVHYLCDETQGWNPDVADIESKITERTKAIVVINPNNPTGAVYSRETLEQIVDLARKHQLLLLADEIYDKILYDDAKHISLATLAPDLLCLTFNGLSKAYRVAGYRSGWLVITGPKEHATSFIEGISLLANMRLCPNVPAQHAIQVALGGHQSIDALVLPGGRLLEQRDVAWEKLNEIPGVSCVKPRGALYAFPRLDPEVYDIHDDEQLVLDLLLQEKILLTQGTGFNWPTPDHLRIVTLPWARDLASAIERLGNFLASYRQ
B6: PhoH family protein (protein, UniProt A0R0T1 1-348)
chain: MTPRDTNADSTATAQESVRSSITVPPDIIVGLLGSADENLRAIEKVLTSDVHVRGNEVTFSGEPADVALAERVVAELVAVASSGQAVTPETVRHSVAILTGAGDESPAEVLTLDILSRRGKTIRPKTLNQKHYVDAIDAHTIVFGIGPAGTGKTYLAMAKAVNALQTKQVNRIILTRPAVEAGERLGFLPGTLSEKIDPYLRPLYDALHDMMDTELIPKLMSAGVIEVAPLAYMRGRTLNDAFIILDEAQNTTAEQMKMFLTRLGFGSKIVVTGDVTQVDLPGGATSGLRAAMQILDNIDDIHFAELTSADVVRHRLVSDIVDAYARHEEPAMLNRAQRRSSNGRPRR
B7: Thioredoxin reductase (protein, UniProt A0QSL0 1-552)
chain: MILSVDDDPAVSRAVARDLRRHYGERYRIVRAESGPDALETLHELKLRGDTVAVFVADYRMPQMSGIEFLESAMDLYPMARRVLLTAYADTNAAIAAINVVDLDHYLLKPWDPPEEKLYPVIDGLLEAWHAAGDRAIPYTKVIGHQWSPRSWEVRQFLARNQHTYRAFNADEPKGRQLLEAAGLDGMQLPVVITEGGTTLVEPTDAELADMLGLSTAPSLTMYDLAVIGGGPAGLAAAVYGASEGLKTVLIEGTTTGGQASRSSRIENYLGFPTGISGAELATSARRQAERFGAEVITTREAVKLEVAGSARTITFADGDTIGARAVILATGVDYRQLPVPGCWDDPDNPVNFIGRGVYYGASVSDAAECCDEDVYIVGGANSAGQAAMFMARTARSVTLLVRGPSLEASMSYYLIQQIEDTPNIHVRTCTEVVKAIGEDDHLVGLVLENKRTGEQEEVRSSRLCCFIGATPRTEWLDGVVARDEHGFILAGPDLRDVCGWTLERPPHHLETSVPGVFVAGDVRAESAKRVAAAVGEGSMAVMFVHRYLAES

How the values were obtained:
[1] = biological target: ClpC1^NTD (ClpC1 N-terminal domain alone, aa 1 to 147, C-terminal 3xFLAG) (M. smegmatis) (UniProt A0R574); experiment: affinity purification with mass spectrometry; 3xFLAG-tagged ClpC1 construct expressed in M. smegmatis MC2155; lysate incubated with anti-FLAG M2 beads 1 h at 4°C in 25 mM HEPES, 10 mM MgCl2, 200 mM KCl, 0.1 mM EDTA, 10 mM ATP, pH 7.5; SDS-PAGE, in-gel trypsin digestion, LC-MS/MS; proteins seen in at least two of three biological replicates; proteins of the empty vector control ignored
[2] = biological target: ClpC1^CORE (ClpC1 lacking the NTD, aa 158 to 848, C-terminal 3xFLAG) (M. smegmatis) (UniProt A0R574); experiment: as above

Binder | binding [1] | binding [2]
B1 | no binding | binds
B2 | binds | binds
B3 | binds | binds
B4 | binds | binds
B5 | binds | binds
B6 | binds | binds
B7 | binds | binds
